Data: article PMC5385504
Results are given in words; binding and its absence hold for the method and conditions named. In cells and extracts the contact can be indirect. A result given as binding can be weak or reduced; the word gives no strength. Where a sequence is shown, tags or fusion partners need not be part of it.

Tests used:
Experiment in all cases: co-IP
[1] = molecular target: T1, LEF-11^HA (BmNPV LEF-11 with HA tag, from pIZ-LEF-11^HA) (Bombyx mori nucleopolyhedrovirus (BmNPV)) (UniProt O92404)
T1 sequence: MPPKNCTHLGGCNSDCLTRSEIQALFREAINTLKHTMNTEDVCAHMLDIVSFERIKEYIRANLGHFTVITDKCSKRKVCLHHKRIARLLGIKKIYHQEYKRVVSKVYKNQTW

[2] = molecular target: ATAD3A^FLAG (Bombyx mori ATAD3A with FLAG tag, from pIZ-ATAD3A^FLAG) (Bombyx mori)
[3] = molecular target: HSPD1^FLAG (Bombyx mori HSPD1 with FLAG tag, from pIZ-HSPD1^FLAG) (Bombyx mori)

| Molecule | binding [1] | binding [2] | binding [3] |
| --- | --- | --- | --- |
| ATAD3A^FLAG (Bombyx mori ATAD3A with FLAG tag, from pIZ-ATAD3A^FLAG) | binds |  |  |
| Chitinase^FLAG (BmNPV Chitinase with FLAG tag, from pIZ-Chitinase^FLAG) (Bombyx mori nucleopolyhedrovirus (BmNPV)) | no binding |  |  |
| HSPD1^FLAG (Bombyx mori HSPD1 with FLAG tag, from pIZ-HSPD1^FLAG) | binds |  |  |
| PP2A^FLAG (Bombyx mori PP2A with FLAG tag, from pIZ-PP2A^FLAG) | no binding |  |  |
| PP5^FLAG (Bombyx mori PP5 with FLAG tag, from pIZ-PP5^FLAG) | no binding |  |  |
| LEF-11^HA (BmNPV LEF-11 with HA tag, from pIZ-LEF-11^HA) (protein, UniProt O92404 1-112) MPPKNCTHLGGCNSDCLTRSEIQALFREAINTLKHTMNTEDVCAHMLDIVSFERIKEYIRANLGHFTVITDKCSKRKVCLHHKRIARLLGIKKIYHQEYKRVVSKVYKNQTW |  | binds | binds |
